Measurements taken from US8530680B2, “System and method for controlling growth of microorganisms with brominated furanones” (Syracuse University, priority 2008, dated 2013).
Some of these results come from one statement about several compounds together.

tested on: Candida albicans strain SC5341; experiment: C. albicans growth curves in SD medium with furanones (96-well plates, OD600); assay type: cell-based; details: 2.5 μg/mL, 17 hours after inoculation
Description: To evaluate the effects of furanones on fungal growth, C. albicans was grown in a synthetic dextrose (“SD”) medium supplemented with 0, 2.5, 5, 10, or 20 μg/mL of one of eight different brominated furanones and […] furanones (BF1, BF8, BF9, BF11, BF12, BF14, NF1, NF2, or NF3).
The Candida albicans strain SC5341 used in this study was provided by Dr. Sean Palecek from the University of Wisconsin-Madison. C. albicans was routinely grown overnight at 30° C. and shaken at 200 rpm in a SD medium containing 0.67% (wt/vol) yeast nitrogen base without amino acids and 2% (wt/vol) dextrose, which was buffered with 0.165 M morpholinepropanesulfonic acid (MOPS, Sigma), and pH-adjusted to 7.0 with solid NaOH. The overnight culture was then sub-cultured in 25 mL of fresh SD medium to an initial optical density at 600 nm (OD600) of 0.005 and grown till the OD600 reached 1.0. The OD600 values were measured using a Spectronic GENESYS 5 UV-Vis spectrophotometer (Thermo Fisher Scientific®, Waltham, Mass.). This culture was used to inoculate sterile 96-well plates (Costar® No. 9017, Corning®, Corning, N.Y.) containing SD medium supplemented with furanones at different concentrations (0, 2.5, 5, 10, 20 μg/mL) to an OD600 of 0.06 in at least duplicates. The BF1, 8, 9, 11, 12, 14 and NF1-3 compounds were dissolved in ethanol at a concentration of 20 mg/mL. The BF10 compound was dissolved in methanol at a concentration of 20 mg/mL. The amounts of methanol and ethanol were adjusted to be the same for each sample to eliminate the effects of solvents. The samples were then incubated at 30° C. with shaking at 200 rpm, and the OD600 in each well was measured at 0, 4, 7, 17, and 42 hours after inoculation, using an ELx808™ Absorbance Microplate Reader (BioTek Instruments® Inc., Winooski, Vt.).

Compound	growth yield relative to that without furanone
O=C1OC(=C(Br)Br)C=C1CBr [BF11, 3-(bromomethyl)-5-(dibromomethylene)furan-2-one]	less than 20%
O=C1O/C(=C\Br)C(Br)=C1CBr [BF12, 4-bromo-3-(bromomethyl)-5Z-(bromomethylene)furan-2-one]	less than 20%

same assay, conditions: 20 μg/mL, 7 hours after inoculation

Compound	growth yield relative to that without furanone
CC1=CC(=C(Br)Br)OC1=O [BF9, 5-(dibromomethylene)-3-methylfuran-2-one]	less than 60%
O=C1OC(=C(Br)Br)C=C1C(Br)Br [BF10, 3-(dibromomethyl)-5-(dibromomethylene)furan-2-one]	less than 60%
CC1=C(Br)C(C(Br)Br)OC1=O (stereo not drawn) [BF14, 4-bromo-5-(dibromomethyl)-3-methylfuran-2(5H)-one]	less than 60%
CCCCC1=C(Br)/C(=C/Br)OC1=O [BF1, 4-bromo-5Z-(bromomethylene)-3-butylfuran-2-one]	less than 60%
